Measurements reported in PubChem BioAssay AID602196 (INSERM, 2012).
Shown is a random part of about 23,000 deposited reagents. 455 of all reagents (2%) were called active. 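Active includes both protection and sensitisation; some change values fall well beyond the stated -50 to +50 range.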 Unmarked entries are inactive. Not all columns of the deposit are shown. The record does not give: the amount of reagent.

- Test: 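Genes whose knock-down alters cisplatin killing of lung cancer cells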
- System: human A549 lung cancer cells
- Reagents: siRNA pair against human genes
- Timing: 48 h transfection before cisplatin; time from cisplatin to read-out not stated
- Treatment: cisplatin at a dose killing half of control-siRNA cells; exact dose and duration not given
- Measurement: 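Shift in cisplatin death relative to control siRNA, from -50 (all cells die) to +50 (no cells die); siRNAs harmful on their own scored 0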
- Scale: two-siRNA summed score (-2 to +2): higher = both siRNAs protect from cisplatin killing; -2 means both sensitise
- Call rule: 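siRNAs harmful alone (LDH or WST-1) get 0; others get +1 for less and -1 for more cisplatin killing; genes are active when the two siRNAs give the same sign, summing to ±2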
- Meaning of the calls: active = both siRNAs shift cisplatin killing the same way; inactive = no consistent shift, or siRNA harmful alone

The opening 2 records, ahead of the listing:
target gene,PubChem SID,two-siRNA summed score (-2 to +2)
PRKCZ,SID131512390,0
NUP62,SID131500507,-1

The list itself, from the first entry:
target gene,PubChem SID,two-siRNA summed score (-2 to +2)
PRKCZ,SID131512390,0
NUP62,SID131500507,-1
ZBTB24,SID131519550,1
PPIL6,SID131521413,1
ABCG4,SID131512566,0
MYOM3,SID131505790,0
GBP4,SID131508934,0
POU2AF1,SID131515954,0
TRPV5,SID131513421,0
LNPK,SID131519596,1
ATP6AP1,SID131510112,0
GIPC2,SID131509562,0
NUMB,SID131516459,0
HYAL3,SID131512234,0
FAM43B,SID131514253,0
TYRP1,SID131501152,-1
POP4,SID131520596,1
TXK,SID131500337,-2 (active)
CYTH3,SID131501479,-1
LIM2,SID131500680,-1
RAD23B,SID131515759,0
KLF12,SID131510040,0
SECISBP2L,SID131522949,2 (active)
